Results are given in words; binding and its absence hold for the method and conditions named. Binding seen in cells or lysates may run through a third protein. Some entries that bind do so weakly or less than the wild type.
Biological target: T1, CD95 (human (endogenous in SUIT-020)), P25445
T1 chain: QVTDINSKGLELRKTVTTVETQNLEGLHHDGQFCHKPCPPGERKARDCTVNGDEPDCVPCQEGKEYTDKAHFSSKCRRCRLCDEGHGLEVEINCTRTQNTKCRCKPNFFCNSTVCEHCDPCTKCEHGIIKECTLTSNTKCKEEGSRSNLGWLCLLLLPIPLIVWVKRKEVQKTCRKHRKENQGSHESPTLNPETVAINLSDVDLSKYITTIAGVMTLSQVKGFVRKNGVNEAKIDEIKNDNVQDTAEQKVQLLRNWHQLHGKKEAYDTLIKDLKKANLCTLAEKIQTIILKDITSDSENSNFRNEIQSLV
Assay: co-IP; DISC-IP: 2 µg anti-APO-1 antibodies and Protein-A Sepharose beads added to total cellular lysates, overnight at 4 °C, four washes with PBS, Western Blot; SUIT-020 cells treated with DL, gemcitabine, FLIPinB and/or S63845
Details: remark: other sources report otherwise

binding: binds
B1: caspase-8 (procaspase-8 and its cleavage products p43/p41, p30 and p18), Q14790 1-479 (enzyme)
chain: MDFSRNLYDIGEQLDSEDLASLKFLSLDYIPQRKQEPIKDALMLFQRLQEKRMLEESNLSFLKELLFRINRLDLLITYLNTRKEEMERELQTPGRAQISAYRVMLYQISEEVSRSELRSFKFLLQEEISKCKLDDDMNLLDIFIEMEKRVILGEGKLDILKRVCAQINKSLLKIINDYEEFSKERSSSLEGSPDEFSNGEELCGVMTISDSPREQDSESQTLDKVYQMKSKPRGYCLIINNHNFAKAREKVPKLHSIRDRNGTHLDAGALTTTFEELHFEIKPHDDCTVEQIYEILKIYQLMDHSNMDCFICCILSHGDKGIIYGTDGQEAPIYELTSQFTGLKCPSLAGKPKVFFIQACQGDNYQKGIPVETDSEEQPYLEMDLSSPQTRYIPDEADFLLGMATVNNCVSYRNPAEGTWYIQSLCQSLRERCPRGDDILTILTEVNYEVSNKDDKKNMGKQMPQPTFTLRKKLVFPSD

Source: paper PMC11698904
